Measurements reported in PubChem BioAssay (NCATS).
The other results are listed elsewhere or left out. Shown are side measurements of this screen, not its main read-out; they come without a call. Most of these compounds were active or inconclusive in the main read-out, so they are no random draw. Words in brackets tell the shape of the fitted curve; partial curves, single points and poor fits give uncertain potencies.

Assay: S16 Schwann cell PMP22 intronic element beta-lactamase assay (AID 624044)
Settings: S16 rat Schwann cells, PMP22 element beta-lactamase FRET, 24 h; measured here: 460 nm blue channel
In short: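 Rat S16 Schwann cells with beta-Lac driven by a PMP22 intronic element, compound-treated 24 h at 37 °C. LiveBLAzer FRET B/G read: 460 nm normalized to potassium clavulanate vs DMSO; 535 nm FRET as viability; concentration-effect curves classified.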
With `CCN(CC)CCOCCOC(=O)C(CC)(CC)c1ccccc1` (tested in a mixture with another compound) the AC50 was 12.6 µM [rising, full curve, poor fit].
With `O=C(Oc1cccc2cccnc12)c1ccccc1` the AC50 was 3.98 µM [falling, partial curve, poor fit].
For `CC(CSC(=O)c1ccccc1)C(=O)N1C[C@@H](Sc2ccccc2)C[C@H]1C(=O)O` (stereo partly specified), the AC50 was 12.6 µM [falling, full curve].
With `CC(=O)OC[C@H]1O[C@@](COC(C)=O)(O[C@H]2O[C@H](COC(C)=O)[C@@H](OC(C)=O)[C@H](OC(C)=O)[C@H]2OC(C)=O)[C@@H](OC(C)=O)[C@@H]1OC(C)=O` the AC50 was 1.58 µM [falling, full curve, poor fit].
For `Clc1cc(Cl)c(OCC#CI)cc1Cl`, the AC50 was 25.1 µM [falling, single point].
In the case of `CCCCCCCCCCCC[n+]1ccc2ccccc2c1`, the AC50 is reported as 17.8 µM [falling, partial curve].
In the case of `c1ccc(-c2nc[nH]c2-c2ccccc2)cc1`, the AC50 is reported as 19.9 µM [falling, partial curve, poor fit].
In the case of `O=C(O)c1cc(=O)c2ccccc2o1`, the AC50 is reported as 25.1 µM [rising, single point].
With `Nc1ncn(C2C[C@H](O)[C@@H](CO)O2)c(=O)n1` (stereo partly specified) the AC50 was 22.4 µM [falling, single point].
For `CCOC(=O)n1ccn(C)c1=S`, the AC50 was 0.00755 µM [falling, full curve, poor fit].
With `CC1=C(/C=C/C(C)=C/C=C/C(C)=C/C=C/C=C(C)/C=C/C=C(C)/C=C/C2=C(C)CCCC2(C)C)C(C)(C)CCC1` the AC50 was 12.6 µM [rising, partial curve].
